Article PMC5069779
Results are given in words; binding and its absence hold for the method and conditions named. Binding seen in cells or lysates may run through a third protein. Binding calls can cover weak binding; strength is not graded here. For some assays here: Tags and fused reporters may be left off the sequences shown.

By UniProt entry, the sequences of proteins in these tests, tags left out.
UniProt Q13153: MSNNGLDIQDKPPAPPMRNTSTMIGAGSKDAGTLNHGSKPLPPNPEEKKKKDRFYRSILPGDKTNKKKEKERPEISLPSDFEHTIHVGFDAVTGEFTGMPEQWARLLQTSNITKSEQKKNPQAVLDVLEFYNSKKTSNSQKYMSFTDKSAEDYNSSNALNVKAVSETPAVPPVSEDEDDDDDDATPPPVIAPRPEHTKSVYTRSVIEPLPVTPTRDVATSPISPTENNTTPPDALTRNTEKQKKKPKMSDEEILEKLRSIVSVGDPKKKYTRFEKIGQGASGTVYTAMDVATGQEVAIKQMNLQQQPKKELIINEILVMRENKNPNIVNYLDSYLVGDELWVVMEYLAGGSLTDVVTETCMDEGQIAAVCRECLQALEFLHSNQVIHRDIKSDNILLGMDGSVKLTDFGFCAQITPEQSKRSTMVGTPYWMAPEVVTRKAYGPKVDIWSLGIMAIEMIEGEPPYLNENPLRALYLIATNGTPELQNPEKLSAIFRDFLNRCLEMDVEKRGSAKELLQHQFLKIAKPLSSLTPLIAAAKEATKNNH

B1: Migration and invasion inhibitory protein (MIIP) expressed from adenovirus (Ad-MIIP) in HEC1B cells (protein, UniProt Q5JXC2 1-388)
chain: MVEAEELAQLRLLNLELLRQLWVGQDAVRRSVARAASESSLESSSSYNSETPSTPETSSTSLSTSCPRGRSSVWGPPDACRGDLRDVARSGVASLPPAKCQHQESLGRPRPHSAPSLGTSSLRDPEPSGRLGDPGPQEAQTPRSILAQQSKLSKPRVTFSEESAVPKRSWRLRPYLGYDWIAGSLDTSSSITSQPEAFFSKLQEFRETNKEECICSHPEPQLPGLRESSGSGVEEDHECVYCYRVNRRLFPVPVDPGTPCRLCRTPRDQQGPGTLAQPAHVRVSIPLSILEPPHRYHIHRRKSFDASDTLALPRHCLLGWDIFPPKSEKSSAPRNLDLWSSVSAEAQHQKLSGTSSPFHPASPMQMLPPTPTWSVPQVPRPHVPRQKP

How the values were obtained:
[1] = target: HA-tagged MIIP (155-388), N-terminal deletion (human) (UniProt Q5JXC2); assay: co-IP; anti-HA immunoprecipitation from HEC1B cells transfected for 24 h with HA-tagged wild-type or truncated MIIP; blot for PAK1 and HA
[2] = target: GST-PAK1 PBD (p21-binding domain of PAK1) coupled to agarose beads (UniProt Q13153); assay: pull-down; Rac activity assay kit: GST-PAK1 PBD beads incubated with lysates of HEC1A cells (MIIP siRNA or scramble control siRNA) or HEC1B cells (Ad-MIIP or Ad-Ev); western blot; only the target purified

| Molecule | binding [1] | binding [2] |
| --- | --- | --- |
| Endogenous PAK1 (p21-activating kinase 1) (from UniProt Q13153 1-545) | binds | – |
| B1 | – | binds |
